Data as given in PubChem BioAssay AID1259261 (Sanger Institute, 2017)
The deposit covers 794 reagents; this is a part drawn at random. In the full data, 10 (1.3%) were called active. 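Calls reflect knock-down alone without drug; synergy scores with BYL719, cetuximab or trametinib do not affect calls.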 No viability above 1 is reported: the scale is capped. Reagent sequences are not shown. Not stated in the record: the amount of reagent, the time to read-out.

- Assay: 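Find kinase silencing that cuts viability alone or with anchor drugs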 (primary screen)
- Cell system: HCC2998 human colorectal cancer cells
- Reagents: siRNA pool against human genes
- Treatment: anchor drugs BYL719 1 µM, cetuximab 5 µg/ml or trametinib 10 nM, each compared with DMSO vehicle
- Measured: 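Cell viability relative to non-targeting siRNA, averaged over replicates, with robust z-score for siRNA alone and synergy scores with each anchor drug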
- Reading the numbers: viability z-score, knock-down alone: higher = more viable cells than controls; viability fraction, knock-down alone: higher = more viable cells; synergy score with BYL719: higher = stronger combined killing with BYL719; synergy score with trametinib: higher = stronger combined killing with trametinib; synergy score with cetuximab: higher = stronger combined killing with cetuximab
- Hit rule: 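a knock-down is called essential if its robust z-score without drug is under -3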
- Calls: active = essential; inactive = no change

gene	viability z-score, knock-down alone	viability fraction, knock-down alone	synergy score with BYL719	synergy score with trametinib	synergy score with cetuximab	activity call
PANK2 (pantothenate kinase 2)	0.127	0.865	-0.195	0.0313	-0.123	inactive
HCK (HCK proto-oncogene, Src family tyrosine kinase)	1.21	1	-0.109	-0.0183	-0.0432	inactive
GRK3 (G protein-coupled receptor kinase 3)	1.21	1	-0.0377	0.0694	-0.0432	inactive
MAPK15 (mitogen-activated protein kinase 15)	-0.604	0.773	0.00237	0.0408	-0.0623	inactive
CDC42BPA (CDC42 binding protein kinase alpha)	-1.13	0.707	-0.0585	0.0484	0.0345	inactive
ERBB3 (erb-b2 receptor tyrosine kinase 3)	0.00162	0.849	0.0374	0.0996	-0.0534	inactive
SMC1A (structural maintenance of chromosomes 1A)	-2.17	0.577	-0.0476	0.0557	-0.0564	inactive
PHKB (phosphorylase kinase regulatory subunit beta)	-1.45	0.667	-0.0911	-0.0696	-0.127	inactive
SRP72 (signal recognition particle 72)	0.00285	0.849	-0.1	-0.0776	-0.154	inactive
IGF1R (insulin like growth factor 1 receptor)	0.277	0.884	-0.0421	-0.14	-0.0854	inactive
CDK11A (cyclin dependent kinase 11A)	-2.22	0.57	-0.118	0.026	0.0748	inactive
GRK1 (G protein-coupled receptor kinase 1)	1.21	1	-0.0933	-0.132	-0.0432	inactive
CHD4 (chromodomain helicase DNA binding protein 4)	-2.73	0.506	-0.0969	-0.0965	-0.0352	inactive
JAK2 (Janus kinase 2)	0.434	0.903	-0.195	-0.139	-0.0976	inactive
MAP2K7 (mitogen-activated protein kinase kinase 7)	-0.132	0.832	0.00751	0.0374	0.0656	inactive
ATM (ATM serine/threonine kinase)	-0.901	0.736	-0.0214	-0.0503	-0.0323	inactive
SIK3 (SIK family kinase 3)	0.995	0.974	-0.132	-0.0174	-0.0685	inactive
FN1 (fibronectin 1)	1.16	0.994	0.137	0.147	0.079	inactive
DYRK1B	0.145	0.867	0.0138	-0.0133	-0.0408	inactive
FGFRL1 (fibroblast growth factor receptor like 1)	-0.583	0.776	0.0511	0.0696	0.0538	inactive
PRKAR1A	-0.388	0.8	0.0275	0.0675	-0.021	inactive
SYK (spleen associated tyrosine kinase)	-0.924	0.733	0.0734	0.136	0.045	inactive
LMTK2 (lemur tail kinase 2)	-0.469	0.79	-0.136	-0.0257	-0.161	inactive
EPHA2 (EPH receptor A2)	1.21	1	-0.109	-0.106	-0.00652	inactive
GAK (cyclin G associated kinase)	0.566	0.92	-0.00573	0.126	0.0489	inactive
TCF7L2 (transcription factor 7 like 2)	0.599	0.924	-0.162	-0.208	-0.0337	inactive
RAF1 (Raf-1 proto-oncogene, serine/threonine kinase)	-2.04	0.593	0.049	0.102	0.0309	inactive

Entries above whose gene name begins with S or s:
gene	viability z-score, knock-down alone	viability fraction, knock-down alone	synergy score with BYL719	synergy score with trametinib	synergy score with cetuximab	activity call
SMC1A (structural maintenance of chromosomes 1A)	-2.17	0.577	-0.0476	0.0557	-0.0564	inactive
SRP72 (signal recognition particle 72)	0.00285	0.849	-0.1	-0.0776	-0.154	inactive
SIK3 (SIK family kinase 3)	0.995	0.974	-0.132	-0.0174	-0.0685	inactive
SYK (spleen associated tyrosine kinase)	-0.924	0.733	0.0734	0.136	0.045	inactive

Additional entries follow.
gene	viability z-score, knock-down alone	viability fraction, knock-down alone	synergy score with BYL719	synergy score with trametinib	synergy score with cetuximab	activity call
PIK3R2 (phosphoinositide-3-kinase regulatory subunit 2)	0.971	0.971	-0.135	-0.149	-0.0714	inactive
VRK3 (VRK serine/threonine kinase 3)	-0.0654	0.841	-0.0543	0.0386	-0.176	inactive
PRKDC (protein kinase, DNA-activated, catalytic subunit)	-0.701	0.761	-0.0543	0.00658	0.0847	inactive
GUK1 (guanylate kinase 1)	1.21	1	0.132	0.201	0.101	inactive
CDK9 (cyclin dependent kinase 9)	0.471	0.908	-0.0717	0.0563	-0.102	inactive
EPHA4 (EPH receptor A4)	-0.565	0.778	-0.126	-0.0753	0.0027	inactive
PDK1 (pyruvate dehydrogenase kinase 1)	1.21	1	0.0245	0.0192	-0.0432	inactive
DCLK3 (doublecortin like kinase 3)	0.077	0.859	-0.154	-0.0237	-0.0507	inactive
DCLK1 (doublecortin like kinase 1)	-0.9	0.736	-0.0659	0.0598	-0.0504	inactive
CAMK2B (calcium/calmodulin dependent protein kinase II beta)	0.503	0.912	0.0414	0.144	0.0719	inactive
MAP3K15 (mitogen-activated protein kinase kinase kinase 15)	1.21	1	-0.013	0.0484	-0.0432	inactive
MYLK (myosin light chain kinase)	-0.0226	0.846	0.0309	0.118	-0.0191	inactive
JAK1 (Janus kinase 1)	0.086	0.86	-0.0916	-0.00989	0.0368	inactive
CKMT2 (creatine kinase, mitochondrial 2)	0.475	0.908	-0.0341	-0.0138	0.0575	inactive
ACVR2B (activin A receptor type 2B)	0.803	0.95	-0.0771	0.0604	0.0212	inactive
TBK1 (TANK binding kinase 1)	-0.0851	0.838	-0.0374	0.159	-0.0498	inactive
RPS6KA3 (ribosomal protein S6 kinase A3)	0.837	0.954	-0.0312	0.0255	0.0363	inactive
PKMYT1 (protein kinase, membrane associated tyrosine/threonine 1)	0.696	0.936	0.00144	0.0463	0.0131	inactive
GUCY2C (guanylate cyclase 2C)	1.15	0.993	-0.0926	0.135	0.0534	inactive
PDGFRA (platelet derived growth factor receptor alpha)	1.08	0.984	0.0302	0.0933	-0.0587	inactive
ITPK1 (inositol-tetrakisphosphate 1-kinase)	0.987	0.973	0.0463	-0.0424	-0.0695	inactive
NUP98 (nucleoporin 98 and 96 precursor)	-3.04	0.468	0.00571	-0.00602	0.0314	active
TEK (TEK receptor tyrosine kinase)	1.21	1	-0.0951	0.0528	-0.0432	inactive
